The test system of this test is BDF1 mice, P388 leukemia ip, median survival T/C. The test is described as follows: NCI In Vivo Anticancer Drug Screen. Data for tumor model P388 Leukemia (intraperitoneal) in B6D2F1 (BDF1) mice. Conditions: T/C endpoint: median survival time, higher T/C = longer survival. The procedure, abridged: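 Mice carrying the transplantable tumour receive compound or vehicle. Survival is followed in each arm, and the treated measure is divided by the vehicle measure.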

Setting [1] is: dose: 200.0 mg/kg/injection, schedule: Q01DX009 (ip), vehicle: saline with Tween-80.

Here are results for 17 compounds from PubChem BioAssay AID328 (DTP/NCI, 2004).

The list shows only some results of the screen, not a fair sample: it is rich in T/C values a quarter to a half above the control, in often repeated tests (any T/C) and in doses without a T/C. Other doses and runs of a compound stand elsewhere. T/C gives the treated animals as a percentage of the vehicle group. Some doses have a count of surviving animals in place of a T/C: the source holds a T/C of zero for them, seemingly a mark for toxic or unscored doses. Some survivor counts are full or nearly so, which does not show that the dose was tolerated: the source hardly ever lists a survival T/C far under the control, and the zero likely stands for such cases as well. Counts of survivors are from the toxicity check (mostly the fifth day) where no day follows; animals may have died later. Schedules are NCI's codes, read here as Q, the interval in days (D) or hours (H), X, the number of doses. Some structures stand for samples that the source files as different forms (salt, stereo form or complex); doses refer to the form tested. For survival time, the PubChem record calls one and a half times the control and up active, and a quarter to a half above the control has no call in these data; cut-offs in other NCI protocols can differ. Some T/C values carry the count of animals alive at the toxicity check (mostly the fifth day); where none is given, no animal had died by that day.

For the compound `COc1cc(C[C@H]2c3cc(OC)c(OC)cc3CCN2C)c(Oc2cc3c(cc2OC)-c2c(OC)c(OC)cc4c2[C@H](C3)N(C)CC4)cc1OC`, the T/C is 127 % of control (dose: 25.0 mg/kg/injection, schedule: Q01DX010 (ip), vehicle: clinical formulation); 130 % of control (dose: 25.0 mg/kg/injection, schedule: Q01DX010 (ip), vehicle: other); 127 % of control [8 of 10 alive] (dose: 100.0 mg/kg/injection, schedule: Q01DX010 (ip), vehicle: clinical formulation). Also, the survivor count (dose: 144.0 mg/kg/injection, schedule: Q04DX003 (ip), vehicle: other) was 6 of 10; the survivor count (dose: 192.0 mg/kg/injection, schedule: Q01DX005 (ip), vehicle: other) was 0 of 10; the survivor count (dose: 192.0 mg/kg/injection, schedule: Q01DX010 (ip), vehicle: other) was 2 of 10; the survivor count (dose: 200.0 mg/kg/injection, schedule: Q01DX010 (ip), vehicle: acetone) is reported as 10 of 10; the survivor count (dose: 200.0 mg/kg/injection, schedule: Q01DX010 (ip), vehicle: clinical formulation) is listed as 0 of 10; the survivor count (dose: 288.0 mg/kg/injection, schedule: Q04DX003 (ip), vehicle: other) was 1 of 10. The survivor count runs as follows: (dose: 400.0 mg/kg/injection, schedule: Q01DX010 (ip), vehicle: acetone) 0 of 10; (dose: 400.0 mg/kg/injection, schedule: Q01DX010 (ip), vehicle: clinical formulation) 0 of 10; (dose: 400.0 mg/kg/injection, schedule: Q01DX010 (ip), vehicle: other) 0 of 10; (dose: 432.0 mg/kg/injection, schedule: Q08DX002 (ip), vehicle: other) 0 of 10; (dose: 576.0 mg/kg/injection, schedule: Q04DX003 (ip), vehicle: other) 0 of 10; (dose: 864.0 mg/kg/injection, schedule: Q08DX002 (ip), vehicle: other) 0 of 10.
Consider `O=C(Cl)C1CCCCC1`, for which the survivor count under setting [1] is 5 of 6.
`ClCc1ccc2ccccc2n1`: the T/C under setting [1] is 145 % of control.
Consider `COC(=O)CCc1c[nH]c2ccc(N(CCCl)CCCl)cc12`, for which the T/C is 127 % of control (dose: 0.06 mg/kg/injection, schedule: Q01DX009 (ip), vehicle: saline with Tween-80); 140 % of control (dose: 0.06 mg/kg/injection, schedule: Q04DX003 (ip), vehicle: saline with Tween-80); 145 % of control (dose: 0.12 mg/kg/injection, schedule: Q04DX003 (ip), vehicle: saline with Tween-80); 144 % of control (dose: 0.5 mg/kg/injection, schedule: Q01DX009 (ip), vehicle: saline with Tween-80); 131 % of control (dose: 2.5 mg/kg/injection, schedule: Q04DX003 (ip), vehicle: saline with Tween-80); 145 % of control (dose: 10.0 mg/kg/injection, schedule: Q04DX003 (ip), vehicle: saline with Tween-80). The survivor count (dose: 5.0 mg/kg/injection, schedule: Q01DX009 (ip), vehicle: saline with Tween-80) is given as 6 of 6; the survivor count (dose: 10.0 mg/kg/injection, schedule: Q01DX009 (ip), vehicle: saline with Tween-80) is 6 of 6; the survivor count (dose: 20.0 mg/kg/injection, schedule: Q01DX009 (ip), vehicle: saline with Tween-80) was 6 of 6; the survivor count (dose: 40.0 mg/kg/injection, schedule: Q01DX009 (ip), vehicle: saline with Tween-80) is on record as 5 of 6.
For `c1ccc(C(c2ccccc2)[n+]2ccccc2)cc1`, the T/C (dose: 6.25 mg/kg/injection, schedule: Q01DX009 (ip), vehicle: saline) was 125 % of control.
For `OC(C1CO1)C(O)C1CO1` (stereo not given), the survivor count reads like this: (dose: 4.0 mg/kg/injection, schedule: Q01DX009 (ip), vehicle: saline) 5 of 6; (dose: 5.9 mg/kg/injection, schedule: Q01DX009 (ip), vehicle: saline) 6 of 6; (dose: 8.0 mg/kg/injection, schedule: Q01DX009 (ip), vehicle: saline) 3 of 6; (dose: 9.0 mg/kg/injection, schedule: Q01DX009 (ip), vehicle: saline) 5 of 6; (dose: 13.0 mg/kg/injection, schedule: Q01DX009 (ip), vehicle: saline) 6 of 6.
Take `Nc1ncnc2c1ccn2C1OC2COP(=O)(O)OC2C1O` (stereo not given): the T/C is 145 % of control (dose: 2.5 mg/kg/injection, schedule: Q01DX010 (ip), vehicle: saline) and 145 % of control (dose: 5.0 mg/kg/injection, schedule: Q01DX010 (ip), vehicle: saline). Further, the survivor count is 6 of 6 (dose: 10.0 mg/kg/injection, schedule: Q01DX010 (ip), vehicle: saline); 6 of 6 (dose: 20.0 mg/kg/injection, schedule: Q01DX010 (ip), vehicle: saline); 2 of 6 (dose: 40.0 mg/kg/injection, schedule: Q01DX010 (ip), vehicle: saline).
In the case of `C/C=C1/C(=O)O[C@]23C=C[C@@H]4C(C(=O)OC)=CO[C@H](O[C@@H]12)[C@@H]43`, under “dose: 620.0 micrograms/kg/injection, schedule: Q01DX009 (ip), vehicle: Klucel (hydroxypropylcellulose) (HPC)”, the T/C was 126 % of control.
`C[N+](C)(C)CN1C(=O)c2ccccc2C1=O`: where the note is “dose: 200.0 mg/kg/injection, schedule: Q01DX009 (ip), vehicle: saline”, the survivor count is listed as 2 of 6.
As to `NC(=O)NN=C1CCCCC1`, the survivor count (dose: 70.0 mg/kg/injection, schedule: Q01DX009 (ip), vehicle: Klucel (hydroxypropylcellulose) (HPC)) is recorded as 0 of 6 and the survivor count (dose: 105.0 mg/kg/injection, schedule: Q04DX003 (ip), vehicle: Klucel (hydroxypropylcellulose) (HPC)) is 3 of 6.
Consider `C=C1C(=O)OC2/C=C(/C)C(OC(C)=O)CC(O)/C(C)=C\C(OC(=O)/C(C)=C\C)C12` (stereo not given), for which the T/C (dose: 60.0 mg/kg/injection, schedule: Q01DX010 (ip), vehicle: saline) was 135 % of control.
As to `COc1cccc2c1C(=O)c1c(O)c3c(c(O)c1C2=O)C[C@@](O)(/C(C)=N/NC(=O)c1ccc(Cl)cc1)C[C@@H]3OC1CC(N)C(O)C(C)O1` (stereo not given in full), the T/C is 142 % of control [5 of 6 alive] (dose: 0.5 mg/kg/injection, schedule: Q01DX009 (ip), vehicle: water) and 140 % of control (dose: 2.0 mg/kg/injection, schedule: Q01DX009 (ip), vehicle: water).
As for `CCC12C=CCN3CCC4(c5c(C(c6ccc(OC)cc6)c6c(CN(C)C)c7ccccc7n6C)cc(OC)cc5N(C)C4C(O)(C(=O)OC)C1OC(C)=O)C32` (stereo not given), for the setting “dose: 30.0 mg/kg/injection, schedule: Q01DX009 (ip), vehicle: saline”, the T/C is 129 % of control.
For `NCCc1ccc(OCc2ccccc2)c(OCc2ccccc2)c1`, the T/C (dose: 12.0 mg/kg/injection, schedule: Q01DX009 (ip), vehicle: saline) was 140 % of control. Also, the survivor count (dose: 50.0 mg/kg/injection, schedule: Q01DX009 (ip), vehicle: saline) is 5 of 6.
In the case of `C=CCOc1ccccc1OC`, the survivor count was 0 of 6 (dose: 400.0 mg/kg/injection, schedule: Q01DX009 (ip), vehicle: saline with Tween-80) and 6 of 6 (dose: 400.0 mg/kg/injection, schedule: Q04DX003 (ip), vehicle: saline with Tween-80).
As for `COc1cc2c(cc1OC)C1CCN3CCCC3N1CC2` (stereo not given), the survivor count (dose: 400.0 mg/kg/injection, schedule: Q01DX001 (ip), vehicle: Klucel (hydroxypropylcellulose) (HPC)) is 1 of 6.
Take `COc1cc(NS(C)(=O)=O)ccc1Nc1c2ccccc2nc2c(C)cccc12`: the survivor count (dose: 5.0 mg/kg/injection, schedule: Q01DX009 (ip), vehicle: Klucel (hydroxypropylcellulose) (HPC)) is 6 of 6; the survivor count (dose: 10.0 mg/kg/injection, schedule: Q01DX009 (ip), vehicle: Klucel (hydroxypropylcellulose) (HPC)) is on record as 6 of 6; the survivor count (dose: 20.0 mg/kg/injection, schedule: Q01DX009 (ip), vehicle: Klucel (hydroxypropylcellulose) (HPC)) was 6 of 6; the survivor count (dose: 37.0 mg/kg/injection, schedule: Q04DX003 (ip), vehicle: gum acacia) is 6 of 6.
